The hits were mostly taken out for another list; the other results follow. Calls of active or inactive are those of the source. Rule as the data show it: active = growth inhibition above about 70%; inactive = the rest.
Columns and labels:
[1] = NCI Yeast Anticancer Drug Screen. Data for the wt2 strain (AID 169);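 also: 0% = growth of vehicle-treated yeast cultures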; conditions: S. cerevisiae wt2 strain growth inhibition, stronger effect = higher value
How it was run: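 Treated yeast vs. vehicle-treated yeast: growth inhibition determined.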

[2] = NCI Yeast Anticancer Drug Screen. Data for the mlh1 strain (AID 171);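 also: 0% = growth of vehicle-treated control cultures of the same strain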; conditions: S. cerevisiae mlh1 strain growth inhibition, stronger effect = higher value
How it was run: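 A yeast strain with a defined genetic lesion serves as the test organism. Cultures receive compound or vehicle, and growth is measured.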

[3] = NCI Yeast Anticancer Drug Screen. Data for the sgs1 strain (AID 173);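 also: 0% = growth of vehicle-only control cultures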; conditions: S. cerevisiae sgs1 mutant, stronger effect = higher value
How it was run: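 A genetically defined yeast mutant is incubated with the test compound, and its growth is compared to that of the same strain given vehicle.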

[4] = NCI Yeast Anticancer Drug Screen. Data for the rad18 strain (AID 177); conditions: S. cerevisiae rad18 mutant growth inhibition, stronger effect = higher value
How it was run: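 Measured value is growth inhibition of a yeast strain bearing a DNA repair alteration, referenced to vehicle-treated cells.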

[5] = NCI Yeast Anticancer Drug Screen. Data for the rad52 strain (AID 147);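 also: 0% = growth of vehicle-treated control cultures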; conditions: S. cerevisiae rad52 mutant growth inhibition, stronger effect = higher value
How it was run: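 Here a repair-compromised yeast strain receives each compound; its growth is then quantified and normalised to vehicle-only controls.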

[6] = NCI Yeast Anticancer Drug Screen. Data for the rad50EPP+ strain (AID 151);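 also: 0% = growth of vehicle-treated control cultures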; conditions: S. cerevisiae rad50 mutant strain, stronger effect = higher value
How it was run: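 Read-out is yeast growth inhibition relative to vehicle; cells used were the rad50EPP+ strain.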

[7] = NCI Yeast Anticancer Drug Screen. Data for the mgt1 strain (AID 153); conditions: S. cerevisiae mgt1 mutant growth inhibition, stronger effect = higher value
How it was run: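 Measured: inhibition of mgt1 yeast growth by compound, normalized to vehicle-treated cultures.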

[8] = NCI Yeast Anticancer Drug Screen. Data for the rad14 strain (AID 159);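 also: 0% = growth of vehicle-treated control cultures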; conditions: S. cerevisiae rad14 strain growth inhibition, stronger effect = higher value
How it was run: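 Screen for anticancer potential: a yeast strain altered in DNA damage repair is grown with compound, and reduced growth is quantified against vehicle controls.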

[9] = NCI Yeast Anticancer Drug Screen. Data for the CLN2oe strain (AID 163);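 also: 0% = growth of vehicle-only control cultures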; conditions: S. cerevisiae CLN2oe strain, stronger effect = higher value
How it was run: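 Whole-cell yeast growth assay. A strain engineered for altered cell-cycle control received compound, and inhibition relative to vehicle-treated cultures was recorded.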

[10] = NCI Yeast Anticancer Drug Screen. Data for the wt1 strain (AID 149);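 also: 0% = growth of vehicle-treated wt1 cultures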; conditions: S. cerevisiae wt1 strain (SPY 50644) growth inhibition, stronger effect = higher value
How it was run: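 Using yeast strain wt1, compound-induced growth inhibition was determined against vehicle-treated cultures.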

Measured: growth inhibition

O=C1OC(c2cccc([N+](=O)[O-])c2)Sc2ccccc21 (stereo not given)
inactive: [1]; at 1.2 µM -3% | [1]; at 3.7 µM -2% | [1]; at 11.0 µM 0% | [1]; at 33.0 µM 5% | [1]; at 100.0 µM 1% | [2]; at 1.2 µM -1% | [2]; at 3.7 µM -2% | [2]; at 11.0 µM -1% | [2]; at 33.0 µM 2% | [2]; at 100.0 µM 5% | [3]; at 1.2 µM -2% | [3]; at 3.7 µM -1% | [3]; at 11.0 µM 1% | [3]; at 33.0 µM 4% | [3]; at 100.0 µM 3% | [4]; at 1.2 µM -3% | [4]; at 3.7 µM 3% | [4]; at 11.0 µM 3% | [4]; at 33.0 µM 4% | [4]; at 100.0 µM 2%

Cc1cc(C(c2ccccc2)(c2ccccc2)c2ccccc2)ccc1N
inactive: [5]; at 1.2 µM 1% | [5]; at 3.7 µM 3% | [5]; at 11.0 µM 6% | [5]; at 33.0 µM 15% | [5]; at 100.0 µM 19% | [6]; at 1.2 µM 5% | [6]; at 3.7 µM -2% | [6]; at 11.0 µM 1% | [6]; at 33.0 µM 6% | [6]; at 100.0 µM 7% | [7]; at 1.2 µM -1% | [7]; at 3.7 µM 0% | [7]; at 11.0 µM -2% | [7]; at 33.0 µM -2% | [7]; at 100.0 µM -18% | [8]; at 1.2 µM -1% | [8]; at 3.7 µM -3% | [8]; at 11.0 µM -1% | [8]; at 33.0 µM 4% | [8]; at 100.0 µM 3% | [9]; at 1.2 µM -2% | [9]; at 3.7 µM 1% | [9]; at 11.0 µM -2% | [9]; at 33.0 µM -6% | [9]; at 100.0 µM -4% | [1]; at 1.2 µM 1% | [1]; at 3.7 µM 0% | [1]; at 11.0 µM -7% | [1]; at 33.0 µM -2% | [1]; at 100.0 µM -3% | [2]; at 1.2 µM 2% | [2]; at 3.7 µM 2% | [2]; at 11.0 µM 2% | [2]; at 33.0 µM 4% | [2]; at 100.0 µM 8% | [3]; at 1.2 µM 0% | [3]; at 3.7 µM 0% | [3]; at 11.0 µM 1% | [3]; at 33.0 µM 3% | [3]; at 100.0 µM 7% | [4]; at 1.2 µM 2% | [4]; at 3.7 µM 1% | [4]; at 11.0 µM 0% | [4]; at 33.0 µM 6% | [4]; at 100.0 µM 18%

Cc1ccc(S(=O)(=O)Oc2ccc(C(C)(C)C)cc2)cc1
inactive: [5]; at 1.2 µM 1% | [5]; at 3.7 µM 5% | [5]; at 11.0 µM 10% | [5]; at 33.0 µM 2% | [5]; at 100.0 µM 11% | [10]; at 1.2 µM -2% | [10]; at 3.7 µM -6% | [10]; at 11.0 µM -10% | [10]; at 33.0 µM -13% | [10]; at 100.0 µM -15% | [6]; at 1.2 µM -1% | [6]; at 3.7 µM 9% | [6]; at 11.0 µM 18% | [6]; at 33.0 µM 13% | [6]; at 100.0 µM 20% | [7]; at 1.2 µM -5% | [7]; at 3.7 µM -3% | [7]; at 11.0 µM -7% | [7]; at 33.0 µM -12% | [7]; at 100.0 µM -11% | [8]; at 1.2 µM 1% | [8]; at 3.7 µM 6% | [8]; at 11.0 µM 6% | [8]; at 33.0 µM -5% | [8]; at 100.0 µM -4% | [9]; at 1.2 µM -2% | [9]; at 3.7 µM -7% | [9]; at 11.0 µM -13% | [9]; at 33.0 µM -20% | [9]; at 100.0 µM -20% | [1]; at 1.2 µM -3% | [1]; at 3.7 µM -9% | [1]; at 11.0 µM -8% | [1]; at 33.0 µM -6% | [1]; at 100.0 µM -15% | [3]; at 1.2 µM -2% | [3]; at 3.7 µM 19% | [3]; at 11.0 µM -7% | [3]; at 33.0 µM 1% | [3]; at 100.0 µM 4% | [4]; at 1.2 µM -2% | [4]; at 3.7 µM 3% | [4]; at 11.0 µM 1% | [4]; at 33.0 µM -5% | [4]; at 100.0 µM 8%

COc1ccc(OC)c(/C=C(/C#N)C(N)=O)c1
inactive: [5]; at 1.2 µM -5% | [5]; at 3.7 µM -8% | [5]; at 11.0 µM -14% | [5]; at 33.0 µM -12% | [5]; at 100.0 µM 6% | [10]; at 1.2 µM -3% | [10]; at 3.7 µM -2% | [10]; at 11.0 µM -2% | [10]; at 33.0 µM 0% | [10]; at 100.0 µM 4% | [6]; at 1.2 µM -1% | [6]; at 3.7 µM 0% | [6]; at 11.0 µM 6% | [6]; at 33.0 µM 10% | [6]; at 100.0 µM 19% | [7]; at 1.2 µM -2% | [7]; at 3.7 µM -3% | [7]; at 11.0 µM -1% | [7]; at 33.0 µM 8% | [7]; at 100.0 µM 2% | [8]; at 1.2 µM -4% | [8]; at 3.7 µM -3% | [8]; at 11.0 µM -1% | [8]; at 33.0 µM 0% | [8]; at 100.0 µM 7% | [9]; at 1.2 µM 1% | [9]; at 3.7 µM 1% | [9]; at 11.0 µM 0% | [9]; at 33.0 µM 4% | [9]; at 100.0 µM 5% | [1]; at 1.2 µM 1% | [1]; at 3.7 µM 4% | [1]; at 11.0 µM 3% | [1]; at 33.0 µM 1% | [1]; at 100.0 µM 0% | [3]; at 1.2 µM 1% | [3]; at 3.7 µM 2% | [3]; at 11.0 µM 5% | [3]; at 33.0 µM 5% | [3]; at 100.0 µM 3% | [4]; at 1.2 µM -6% | [4]; at 3.7 µM 0% | [4]; at 11.0 µM 2% | [4]; at 33.0 µM 3% | [4]; at 100.0 µM 8%

— PubChem BioAssay (NCI)
